Measured values published in PMC8073056.
No constants are given. Whether binding was seen depends on the method and setting. Binding seen in cells or lysates may run through a third protein. Here binding means that the protein was enriched with, or labelled near, the bait; the list need not be complete.

Protein sequences, listed by entry. Tags and fused reporters are not part of them.
UniProt O95271: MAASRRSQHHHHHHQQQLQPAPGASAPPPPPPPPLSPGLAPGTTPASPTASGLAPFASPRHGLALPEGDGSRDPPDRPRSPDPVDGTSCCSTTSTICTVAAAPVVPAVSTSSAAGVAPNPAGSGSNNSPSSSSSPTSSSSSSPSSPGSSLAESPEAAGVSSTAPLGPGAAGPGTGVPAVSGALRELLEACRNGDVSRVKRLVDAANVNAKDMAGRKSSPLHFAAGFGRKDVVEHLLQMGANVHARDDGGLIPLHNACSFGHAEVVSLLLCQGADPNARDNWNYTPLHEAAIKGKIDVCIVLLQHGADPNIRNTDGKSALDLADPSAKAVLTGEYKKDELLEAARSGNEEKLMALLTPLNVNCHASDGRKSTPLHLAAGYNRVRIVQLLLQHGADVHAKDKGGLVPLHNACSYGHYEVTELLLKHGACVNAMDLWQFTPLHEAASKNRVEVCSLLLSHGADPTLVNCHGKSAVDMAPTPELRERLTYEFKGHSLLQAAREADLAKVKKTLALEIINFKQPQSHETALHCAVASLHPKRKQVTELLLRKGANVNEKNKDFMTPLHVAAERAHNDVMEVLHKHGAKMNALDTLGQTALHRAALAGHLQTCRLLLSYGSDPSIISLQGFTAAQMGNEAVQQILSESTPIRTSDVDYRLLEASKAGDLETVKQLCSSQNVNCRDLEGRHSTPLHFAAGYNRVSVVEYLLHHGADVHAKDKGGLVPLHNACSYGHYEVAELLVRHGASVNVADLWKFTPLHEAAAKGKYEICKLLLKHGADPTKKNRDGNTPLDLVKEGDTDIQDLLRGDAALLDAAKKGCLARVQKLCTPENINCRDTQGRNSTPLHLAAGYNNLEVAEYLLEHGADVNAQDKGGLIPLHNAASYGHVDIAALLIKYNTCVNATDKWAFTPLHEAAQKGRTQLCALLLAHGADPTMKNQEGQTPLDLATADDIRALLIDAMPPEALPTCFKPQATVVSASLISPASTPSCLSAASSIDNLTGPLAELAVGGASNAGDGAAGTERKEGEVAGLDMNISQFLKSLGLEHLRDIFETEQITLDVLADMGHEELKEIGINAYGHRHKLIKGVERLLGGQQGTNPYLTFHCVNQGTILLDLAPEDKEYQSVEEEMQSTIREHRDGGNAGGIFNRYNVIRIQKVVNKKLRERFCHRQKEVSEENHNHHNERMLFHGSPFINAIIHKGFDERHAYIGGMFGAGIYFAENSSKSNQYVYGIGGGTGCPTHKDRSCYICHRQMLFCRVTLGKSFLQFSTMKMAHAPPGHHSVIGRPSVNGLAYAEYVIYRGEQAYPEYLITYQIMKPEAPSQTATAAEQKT

Biological target: His-PC-Arpin (Protein C-tagged human Arpin, wild type) (human) (UniProt Q7Z6K5)
Test: affinity purification with mass spectrometry; His-PC-Arpin immunoprecipitated on HPC4-coupled beads from lysate of stable 293 cells; 50 mM Hepes pH 7.7, 150 mM NaCl, 1 mM CaCl2, 1% NP40, 0.5% Na deoxycholate, 0.1% SDS; 3 h at 4 °C; silver staining, specific bands identified by LC-MS/MS; control: cell line with the empty plasmid

Substance: Tankyrase 1 (endogenous, 293 and 293T cells) (from UniProt O95271 1-1327) (enzyme)
- binding: binds
